Results as given in patent publication US9303261B2, “Composition for controlling chromogenesis including microRNA” (Amorepacific Corporation, priority 2011, dated 2016).
At least one compound was matched to its structure with a doubt left.

Tested on: hsa-miR-125b
Test: hsa-miR-125b expression by real-time PCR in WM266-4 cells treated with forskolin
Assay type: cell-based, human
Conditions: melanoma cell line WM266-4, 25 uM and 50 uM forskolin, about 6 hours

C=C[C@@]1(C)CC(=O)[C@]2(O)[C@@]3(C)[C@@H](O)CCC(C)(C)[C@@H]3[C@H](O)[C@H](OC(C)=O)[C@@]2(C)O1 [forskolin]
expression level of hsa-miR-125b (normalized to rnu6b): decreased as the treatment concentration of forskolin increased
